Drug screen on melanoma cell lines: cell count

From a melanoma drug combination screen (doi:10.1371/journal.pone.0140310); values rounded.

Drugs:
tamatinib: COc1cc(Nc2ncc(F)c(Nc3ccc4c(n3)NC(=O)C(C)(C)O4)n2)cc(OC)c1OC at 400 nM
selumetinib: Cn1cnc2c(F)c(Nc3ccc(Br)cc3Cl)c(C(=O)NOCCO)cc21 at 15 nM
L-779450: Oc1cc(-c2nc(-c3ccccc3)[nH]c2-c2ccncc2)ccc1Cl at 200 nM
embelin: CCCCCCCCCCCC1=C(O)C(=O)C=C(O)C1=O at 1200 nM
KU-55933: O=c1cc(-c2cccc3c2Sc2ccccc2S3)oc(N2CCOCC2)c1 at 1000 nM
sunitinib: CCN(CC)CCNC(=O)c1c(C)[nH]c(/C=C2\C(=O)Nc3ccc(F)cc32)c1C at 400 nM
MK-1775: C=CCn1c(=O)c2cnc(Nc3ccc(N4CCN(C)CC4)cc3)nc2n1-c1cccc(C(C)(C)O)n1 at 20 nM
tipifarnib: Cn1cncc1[C@@](N)(c1ccc(Cl)cc1)c1ccc2c(c1)c(-c1cccc(Cl)c1)cc(=O)n2C at 10 nM
decitabine: Nc1ncn([C@H]2C[C@H](O)[C@@H](CO)O2)c(=O)n1 at 100 nM
OSI-906: C[C@]1(O)C[C@@H](c2nc(-c3ccc4ccc(-c5ccccc5)nc4c3)c3c(N)nccn32)C1 at 400 nM

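The test systems are human melanoma cell lines, treated with a pair of drugs for 72 h and then stained and imaged. The read-out is cell count (nuclei) in % of the DMSO control; lower values mean stronger growth inhibition or killing. Concentrations were fixed for each drug; these are the lower of two levels, a fifth of the higher. No replicate spread is given; individual values may be noisy.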 This is part of the screen, not chosen by result. A dash means that no value is listed here.

| # | Pair | COLO 829 | LOX IMVI | G-361 | A2058 | LB2518-MEL | A375 |
|---|---|---|---|---|---|---|---|
| 1 | MK-1775 and sunitinib | 97.4 | 128 | 97.5 | 104 | 88.6 | 63.6 |
| 2 | L-779450 and sunitinib | 146 | 173 | 98.2 | 99.2 | 107 | - |
| 3 | MK-1775 and L-779450 | 95.5 | 98.1 | 102 | 107 | 68.7 | 47.0 |
| 4 | sunitinib and KU-55933 | 132 | 150 | 113 | 88.2 | 91.8 | - |
| 5 | decitabine and selumetinib | 99.0 | 103 | 83.7 | 82.8 | 55.4 | 73.0 |
| 6 | sunitinib and tipifarnib | 112 | 102 | 93.3 | 96.8 | 67.8 | 54.2 |
| 7 | selumetinib and tipifarnib | 96.8 | 150 | 82.1 | 97.0 | 69.2 | 57.2 |
| 8 | selumetinib and KU-55933 | 115 | 102 | 96.9 | 109 | 75.6 | - |
| 9 | L-779450 and tipifarnib | 109 | 141 | 94.2 | 80.3 | 74.3 | 70.6 |
| 10 | L-779450 and selumetinib | 96.2 | 133 | 70.6 | 110 | 81.1 | - |
| 11 | selumetinib and OSI-906 | 86.5 | 94.3 | 67.1 | 100 | 47.0 | 48.3 |
| 12 | OSI-906 and embelin | 93.0 | 104 | 111 | 96.4 | 101 | - |
| 13 | decitabine and sunitinib | 88.8 | 82.1 | 99.0 | 98.6 | 98.6 | 76.7 |
| 14 | tipifarnib and embelin | 93.0 | 106 | 101 | 96.7 | 80.6 | 77.2 |
| 15 | MK-1775 and embelin | 92.0 | 86.0 | 87.3 | 82.9 | 79.9 | 71.0 |
| 16 | KU-55933 and tipifarnib | 91.4 | 102 | 96.6 | 90.5 | 85.3 | 78.1 |
| 17 | OSI-906 and tamatinib | 92.7 | 65.0 | 82.4 | 75.9 | 61.9 | 49.4 |
| 18 | sunitinib and embelin | 130 | 118 | 118 | 109 | 119 | - |
| 19 | sunitinib and tamatinib | 96.8 | 124 | 100 | 94.1 | 89.2 | 75.9 |
| 20 | decitabine and tipifarnib | 73.7 | 85.6 | 77.8 | 73.6 | - | 73.9 |
| 21 | sunitinib and OSI-906 | 91.5 | 64.4 | 81.5 | 87.8 | 114 | 62.6 |
| 22 | MK-1775 and OSI-906 | 94.0 | 82.9 | 81.4 | 96.2 | 77.9 | 35.4 |
| 23 | tipifarnib and OSI-906 | 100 | 54.4 | 75.1 | 78.8 | 69.8 | 67.0 |
| 24 | MK-1775 and decitabine | 66.1 | 179 | 85.1 | 81.1 | 81.1 | 74.5 |
| 25 | embelin and tamatinib | 92.9 | 88.1 | 78.6 | 93.2 | 86.3 | 103 |
| 26 | embelin and selumetinib | 148 | 116 | 102 | 116 | 56.8 | - |
| 27 | selumetinib and tamatinib | 98.9 | 115 | 77.8 | 87.9 | 48.2 | 64.2 |
| 28 | KU-55933 and decitabine | 100 | 150 | 85.2 | 89.8 | 84.3 | - |
| 29 | KU-55933 and MK-1775 | 115 | 136 | 85.0 | 96.7 | 103 | 63.5 |
| 30 | L-779450 and tamatinib | 80.0 | 82.8 | 84.6 | 97.4 | 78.1 | 61.1 |

3 of the entries, repeated:

| Pair | COLO 829 | LOX IMVI | G-361 | A2058 | LB2518-MEL | A375 |
|---|---|---|---|---|---|---|
| MK-1775 and decitabine | 66.1 | 179 | 85.1 | 81.1 | 81.1 | 74.5 |
| decitabine and tipifarnib | 73.7 | 85.6 | 77.8 | 73.6 | - | 73.9 |
| L-779450 and sunitinib | 146 | 173 | 98.2 | 99.2 | 107 | - |